Laboratory results published in PubChem BioAssay AID504834 (National Center for Advancing Translational Sciences (NCATS), 2011).
Hit rate of the full screen: of about 320,000 compounds, about 22,000 (6.9%) were called active. The shares of active, inactive and inconclusive entries below differ from those in the screen. The call rests on the fitted dose curve; in most records, active means well fitted inhibition curve with a large enough effect; inconclusive means small, poorly fitted or top-dose-only effect, or another doubt; inactive means no such curve, though single readings can be large or run the other way. Where the call is inconclusive, the potency comes from a doubtful curve fit.
On the % scale 0 is the no-effect control and ±100 the full control effect; potency means the concentration at half of the fitted maximal effect.

Assay: Primary qHTS for delayed death inhibitors of the malarial parasite plastid, 96 hour incubation
Conditions: P. falciparum luciferase reporter growth; series mostly up to 28.7 µM; activity change, negative = inhibition: at the top concentration
In short: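 Erythrocytes infected with luciferase-expressing P. falciparum were dispensed at 2% hematocrit and 0.05% parasitemia (final), then incubated with compounds 96 hours at 37 C in 5% CO2. Luminescence after detection reagent addition reported growth.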
For `Cc1sc2nc(SCCN(C)C)n(-c3ccccc3)c(=O)c2c1-c1ccc(F)cc1`, the Potency was inconclusive: 8.28 µM [inhibitor, single point].
For `COc1ccc2c(c1OC)C(=O)N1c3cccc(Cl)c3C(=O)OC21` (configuration not stated), the Potency was inconclusive: 18.5 µM [inhibitor, partial curve, poor fit].
In the case of `COc1ccccc1CCn1c(N)c(C#N)c2nc3ccccc3nc21`, the Potency is reported as inconclusive: 2.33 µM [inhibitor, full curve].
With `C=CCS(=O)(=O)N1CCCC(Cc2ccccc2C)(C(=O)OCC)C1` (configuration not stated) the Potency was inconclusive: 18.5 µM [inhibitor, single point].
For `Cn1cc([N+](=O)[O-])c(C(=O)N2CCCCCC2)n1`, the “activity change, negative = inhibition” value was inactive: -12%.
In the case of `Cc1ccc(NC(=O)CCc2nnc3ccc(N4CCN(C)CC4)nn23)cc1F`, the Potency is reported as inconclusive: 14.7 µM [inhibitor, single point].
In the case of `CC(=O)Nc1ccc(C(=O)COC(=O)C2CC3CCCC(C2)C3=O)cc1` (configuration not stated), the “activity change, negative = inhibition” value is reported as inactive: 41.7%.
With `Cc1ccc(C(=O)Oc2ccc(Cl)c3cccnc23)cc1[N+](=O)[O-]` the Potency was inconclusive: 10.4 µM [inhibitor, single point].
For `Cc1nc2ccc(Br)cn2c1C(=O)N/N=C\c1ccccc1Cl`, the Potency was active: 3.29 µM.
For `CC(NCC#Cc1ccccc1)C(O)c1ccccc1` (configuration not stated), the Potency was inconclusive: 13.1 µM [inhibitor, single point].
In the case of `O=S(=O)(c1cccc(F)c1)N1CCc2sccc2C1c1ccc(OC(F)(F)F)cc1` (configuration not stated), the Potency is reported as inconclusive: 11.7 µM [inhibitor, single point].
For `COCCNC(=O)c1cccc2c1-c1ccccc1C2=O`, the Potency was inconclusive: 14.7 µM [inhibitor, single point].
In the case of `COc1ccc(/C=C/C(=O)N2CCN(S(=O)(=O)c3ccccc3)CC2)cc1OC`, the Potency is reported as inconclusive: 9.28 µM [inhibitor, partial curve, poor fit].
With `CN1CCN(C(=O)C2=C[C@@H](c3ccc(C(F)(F)F)cc3)C[C@@H](OCc3ccc(CO)cc3)O2)CC1` the Potency was inconclusive: 9.28 µM [inhibitor, single point].
For `COC(=O)c1cccc(C23CC4(C2)[C@H](CN(Cc2ccc(C(F)(F)F)cc2)[C@@H]4c2ccccc2)C3c2ccccc2)c1` (some centres not stated), the Potency was inconclusive: 3.7 µM [inhibitor, single point].
For `Cc1cccc(C(=O)NC(=S)NNC(=O)COc2c(C)cccc2C)c1`, the “activity change, negative = inhibition” value was inactive: -5.75%.
With `COC(=O)C1=C(c2ccc(Cl)c(C(F)(F)F)c2)C[C@@H]2CC[C@H]1N2C(=O)N1CCCC1` the Potency was inconclusive: 6.57 µM [inhibitor, partial curve, poor fit].
